Laboratory results reported in the supplement of paper PMC10849652.
The other results are listed elsewhere or left out.

Sequences of proteins named here, by UniProt entry; tags and fusion partners are left off. A change or cut given only in a name is not applied to a line headed by its entry.
UniProt P11047: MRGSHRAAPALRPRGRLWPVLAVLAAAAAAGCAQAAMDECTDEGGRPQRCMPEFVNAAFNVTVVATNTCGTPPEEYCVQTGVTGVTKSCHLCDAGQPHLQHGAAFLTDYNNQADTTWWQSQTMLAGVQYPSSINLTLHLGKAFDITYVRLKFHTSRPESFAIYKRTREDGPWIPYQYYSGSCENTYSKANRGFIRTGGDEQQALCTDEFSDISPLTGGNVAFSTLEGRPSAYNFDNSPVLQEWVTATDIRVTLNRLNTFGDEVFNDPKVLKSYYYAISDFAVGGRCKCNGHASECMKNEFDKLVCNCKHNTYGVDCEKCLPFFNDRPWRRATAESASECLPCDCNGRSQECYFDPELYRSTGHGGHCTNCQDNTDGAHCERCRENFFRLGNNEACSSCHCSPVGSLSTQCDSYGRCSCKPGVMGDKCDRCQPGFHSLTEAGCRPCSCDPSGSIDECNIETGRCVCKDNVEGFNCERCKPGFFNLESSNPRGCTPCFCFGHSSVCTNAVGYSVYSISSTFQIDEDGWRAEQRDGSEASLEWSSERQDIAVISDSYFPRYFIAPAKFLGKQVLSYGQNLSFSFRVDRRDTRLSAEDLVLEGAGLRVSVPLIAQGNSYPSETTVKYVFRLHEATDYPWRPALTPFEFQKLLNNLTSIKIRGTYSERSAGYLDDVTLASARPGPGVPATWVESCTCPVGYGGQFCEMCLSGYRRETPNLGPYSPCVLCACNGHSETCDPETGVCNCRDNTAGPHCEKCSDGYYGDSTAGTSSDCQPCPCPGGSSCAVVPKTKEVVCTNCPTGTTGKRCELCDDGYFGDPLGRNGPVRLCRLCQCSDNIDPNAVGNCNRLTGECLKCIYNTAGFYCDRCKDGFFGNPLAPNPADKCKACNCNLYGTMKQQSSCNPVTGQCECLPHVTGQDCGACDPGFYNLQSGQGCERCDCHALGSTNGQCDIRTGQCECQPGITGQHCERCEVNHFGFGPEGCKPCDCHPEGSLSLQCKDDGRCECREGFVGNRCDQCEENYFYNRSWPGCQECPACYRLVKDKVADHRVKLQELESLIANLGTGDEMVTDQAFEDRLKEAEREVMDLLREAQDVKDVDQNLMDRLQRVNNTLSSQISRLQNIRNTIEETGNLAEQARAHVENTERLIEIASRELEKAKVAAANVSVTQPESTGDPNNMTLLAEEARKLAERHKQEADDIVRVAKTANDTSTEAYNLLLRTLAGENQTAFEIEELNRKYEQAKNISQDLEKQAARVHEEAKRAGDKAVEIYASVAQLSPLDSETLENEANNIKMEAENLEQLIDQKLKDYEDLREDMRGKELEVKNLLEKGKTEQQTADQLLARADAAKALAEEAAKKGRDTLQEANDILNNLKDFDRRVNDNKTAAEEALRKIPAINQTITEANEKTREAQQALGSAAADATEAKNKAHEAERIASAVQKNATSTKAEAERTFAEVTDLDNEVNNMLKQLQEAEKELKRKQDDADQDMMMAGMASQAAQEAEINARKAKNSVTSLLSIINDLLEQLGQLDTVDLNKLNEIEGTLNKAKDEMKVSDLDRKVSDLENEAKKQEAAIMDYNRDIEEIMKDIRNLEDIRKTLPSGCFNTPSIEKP
UniProt Q96GY3: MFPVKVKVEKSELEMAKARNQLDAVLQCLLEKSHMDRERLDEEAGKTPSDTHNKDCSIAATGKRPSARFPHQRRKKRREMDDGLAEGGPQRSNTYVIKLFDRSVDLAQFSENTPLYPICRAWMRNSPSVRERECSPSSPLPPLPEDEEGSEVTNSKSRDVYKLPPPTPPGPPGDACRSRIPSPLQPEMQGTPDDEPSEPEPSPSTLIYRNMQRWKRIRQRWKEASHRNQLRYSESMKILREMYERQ
UniProt Q9H9Z2: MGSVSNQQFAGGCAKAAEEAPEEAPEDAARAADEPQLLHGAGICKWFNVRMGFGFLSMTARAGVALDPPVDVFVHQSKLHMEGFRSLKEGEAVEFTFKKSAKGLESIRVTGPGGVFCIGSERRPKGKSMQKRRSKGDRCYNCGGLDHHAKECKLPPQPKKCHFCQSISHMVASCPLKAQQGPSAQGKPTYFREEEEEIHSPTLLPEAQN
UniProt Q99538: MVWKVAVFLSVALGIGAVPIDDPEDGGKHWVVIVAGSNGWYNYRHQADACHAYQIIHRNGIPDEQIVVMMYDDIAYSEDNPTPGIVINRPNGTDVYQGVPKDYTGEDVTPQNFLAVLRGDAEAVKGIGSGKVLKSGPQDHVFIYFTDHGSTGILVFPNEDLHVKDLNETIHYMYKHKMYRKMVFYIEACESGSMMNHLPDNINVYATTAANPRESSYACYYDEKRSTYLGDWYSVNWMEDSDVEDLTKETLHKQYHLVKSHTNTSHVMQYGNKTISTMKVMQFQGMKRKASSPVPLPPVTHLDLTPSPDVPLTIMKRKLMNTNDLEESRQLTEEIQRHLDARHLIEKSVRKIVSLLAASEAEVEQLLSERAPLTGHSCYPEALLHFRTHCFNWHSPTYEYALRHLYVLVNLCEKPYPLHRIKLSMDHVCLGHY
UniProt Q5SW96: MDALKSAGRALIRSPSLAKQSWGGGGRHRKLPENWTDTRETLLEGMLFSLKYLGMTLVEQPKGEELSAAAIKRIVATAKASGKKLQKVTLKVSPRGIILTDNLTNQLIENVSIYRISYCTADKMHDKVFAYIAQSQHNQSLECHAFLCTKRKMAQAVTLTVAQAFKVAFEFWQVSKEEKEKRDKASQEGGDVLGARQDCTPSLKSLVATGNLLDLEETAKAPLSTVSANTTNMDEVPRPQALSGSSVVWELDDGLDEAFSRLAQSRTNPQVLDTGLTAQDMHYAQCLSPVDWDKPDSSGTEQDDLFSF
UniProt P80188: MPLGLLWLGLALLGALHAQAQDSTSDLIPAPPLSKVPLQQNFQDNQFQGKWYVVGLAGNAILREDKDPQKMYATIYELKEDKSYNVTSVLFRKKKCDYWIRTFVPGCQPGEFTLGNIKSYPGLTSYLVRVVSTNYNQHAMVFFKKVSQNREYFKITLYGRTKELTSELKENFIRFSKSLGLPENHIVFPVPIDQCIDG
UniProt P55268: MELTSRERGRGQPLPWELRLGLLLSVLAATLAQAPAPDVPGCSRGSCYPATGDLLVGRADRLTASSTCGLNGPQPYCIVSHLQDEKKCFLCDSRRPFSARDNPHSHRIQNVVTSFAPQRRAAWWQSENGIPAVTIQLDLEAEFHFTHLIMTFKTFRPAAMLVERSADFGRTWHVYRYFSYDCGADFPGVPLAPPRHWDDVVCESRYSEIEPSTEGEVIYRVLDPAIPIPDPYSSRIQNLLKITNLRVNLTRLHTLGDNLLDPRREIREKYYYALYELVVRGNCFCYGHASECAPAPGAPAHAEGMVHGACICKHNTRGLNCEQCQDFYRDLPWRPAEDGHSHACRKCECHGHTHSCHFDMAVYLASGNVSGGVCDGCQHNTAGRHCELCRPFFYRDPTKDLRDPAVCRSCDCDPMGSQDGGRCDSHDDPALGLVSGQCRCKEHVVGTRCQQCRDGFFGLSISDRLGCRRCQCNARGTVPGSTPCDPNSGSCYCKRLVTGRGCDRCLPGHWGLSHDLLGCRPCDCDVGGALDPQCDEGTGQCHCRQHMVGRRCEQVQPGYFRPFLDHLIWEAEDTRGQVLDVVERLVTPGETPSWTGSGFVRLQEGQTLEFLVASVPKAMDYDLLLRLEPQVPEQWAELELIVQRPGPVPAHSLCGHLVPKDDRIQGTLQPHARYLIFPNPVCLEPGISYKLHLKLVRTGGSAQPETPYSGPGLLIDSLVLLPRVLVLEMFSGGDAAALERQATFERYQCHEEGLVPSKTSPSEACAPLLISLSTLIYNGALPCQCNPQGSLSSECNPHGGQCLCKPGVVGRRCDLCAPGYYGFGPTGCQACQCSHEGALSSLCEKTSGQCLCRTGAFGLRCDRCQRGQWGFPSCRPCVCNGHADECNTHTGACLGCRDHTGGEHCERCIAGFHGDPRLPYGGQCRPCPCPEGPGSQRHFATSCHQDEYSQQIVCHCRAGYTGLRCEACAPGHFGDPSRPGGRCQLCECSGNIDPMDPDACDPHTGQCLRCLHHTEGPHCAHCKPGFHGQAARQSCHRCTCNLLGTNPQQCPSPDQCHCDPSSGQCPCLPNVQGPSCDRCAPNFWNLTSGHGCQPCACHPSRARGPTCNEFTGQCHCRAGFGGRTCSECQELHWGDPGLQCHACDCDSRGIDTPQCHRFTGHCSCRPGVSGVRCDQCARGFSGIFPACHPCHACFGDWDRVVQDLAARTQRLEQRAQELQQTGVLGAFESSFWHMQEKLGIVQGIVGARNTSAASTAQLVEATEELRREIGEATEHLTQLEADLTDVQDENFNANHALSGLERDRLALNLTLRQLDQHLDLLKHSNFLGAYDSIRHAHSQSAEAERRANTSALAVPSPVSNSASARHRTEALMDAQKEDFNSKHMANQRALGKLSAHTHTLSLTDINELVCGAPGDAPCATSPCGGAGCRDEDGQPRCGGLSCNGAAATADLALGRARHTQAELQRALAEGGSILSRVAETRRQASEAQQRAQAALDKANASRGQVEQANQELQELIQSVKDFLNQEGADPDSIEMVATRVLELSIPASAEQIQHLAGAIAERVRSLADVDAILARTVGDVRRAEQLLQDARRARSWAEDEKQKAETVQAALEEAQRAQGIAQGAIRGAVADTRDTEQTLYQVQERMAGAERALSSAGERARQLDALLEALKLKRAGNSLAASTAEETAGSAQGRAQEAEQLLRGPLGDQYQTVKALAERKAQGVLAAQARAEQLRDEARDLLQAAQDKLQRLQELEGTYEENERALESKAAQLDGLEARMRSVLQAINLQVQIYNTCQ
UniProt A6NK58: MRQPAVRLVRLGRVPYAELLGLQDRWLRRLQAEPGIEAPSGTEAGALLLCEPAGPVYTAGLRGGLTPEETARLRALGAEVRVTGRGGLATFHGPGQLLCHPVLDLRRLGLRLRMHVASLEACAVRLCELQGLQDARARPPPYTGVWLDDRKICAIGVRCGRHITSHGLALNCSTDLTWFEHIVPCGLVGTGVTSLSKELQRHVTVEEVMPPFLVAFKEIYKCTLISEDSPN
UniProt Q15345: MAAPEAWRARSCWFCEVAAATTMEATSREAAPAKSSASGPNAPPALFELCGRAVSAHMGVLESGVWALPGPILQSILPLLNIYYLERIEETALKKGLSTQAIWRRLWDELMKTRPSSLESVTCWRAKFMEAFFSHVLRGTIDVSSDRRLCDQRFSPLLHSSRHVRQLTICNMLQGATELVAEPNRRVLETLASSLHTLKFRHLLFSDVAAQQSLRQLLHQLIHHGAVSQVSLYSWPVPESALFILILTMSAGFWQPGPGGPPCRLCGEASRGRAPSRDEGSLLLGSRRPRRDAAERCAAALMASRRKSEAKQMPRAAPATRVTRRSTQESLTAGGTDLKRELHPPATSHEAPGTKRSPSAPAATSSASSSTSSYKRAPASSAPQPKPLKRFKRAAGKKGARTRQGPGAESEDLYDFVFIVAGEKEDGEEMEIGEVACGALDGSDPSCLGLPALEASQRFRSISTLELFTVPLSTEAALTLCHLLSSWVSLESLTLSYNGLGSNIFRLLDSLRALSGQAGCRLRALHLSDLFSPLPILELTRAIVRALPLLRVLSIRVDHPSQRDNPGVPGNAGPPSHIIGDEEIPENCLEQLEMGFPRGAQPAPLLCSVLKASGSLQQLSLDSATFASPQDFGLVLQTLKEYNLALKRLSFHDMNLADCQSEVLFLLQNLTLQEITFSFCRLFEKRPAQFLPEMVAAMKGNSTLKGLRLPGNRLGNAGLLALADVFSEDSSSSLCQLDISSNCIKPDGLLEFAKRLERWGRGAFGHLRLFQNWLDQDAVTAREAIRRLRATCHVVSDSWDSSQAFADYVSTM

Assays:
Assay in all cases: log2 fold change, soluble protein after heating vs DMSO (PISA); higher = thermal stabilisation; K562 cells, 10 uM, 30 min; active = over 0.2 and 3.5 SD of the protein, either way, in both replicates (recomputed)
[1] = compound: CCn1cc(-c2ccnc3[nH]c(-c4cccc(CN(C)C)c4)cc23)c(-c2ccc(NC(=O)N(C)C)cc2)n1
Summary of the method: (§1)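 K562 cells at 2×10^6 cells/mL were given 10 μM compound for 30 min. Aliquots then went through 3 min of heating across 48°C-58°C, were pooled, and were extracted in PBS with 0.5% NP-40 at 4°C, and the supernatant after 21,000xg for 90 min was quantified by TMTpro 16plex LC-MS/MS with channel sums equalised. Thermal stability relative to control samples, from duplicates, is given as log2 fold change.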

[2] = compound: CN1C2=C(C3=C1C(=O)N(N=C3)CC4=CC(=CC=C4)N)SC(=C2)S(=O)C
Summary of the method: as §1

[3] = compound: CN1CCC(CNc2ccc3ncc(-c4cccc(OC(F)(F)F)c4)n3n2)CC1
Summary of the method: as §1

saracatinib = compound: CN1CCN(CCOc2cc(OC3CCOCC3)c3c(Nc4c(Cl)ccc5c4OCO5)ncnc3c2)CC1 [saracatinib]
Summary of the method: as §1

[4] = compound: CNc1nc(-c2ccc3c(N)n[nH]c3c2)cc(N2C[C@@H](C(=O)NC3CCCCC3)CC[C@H]2C)n1
Summary of the method: as §1

volasertib = compound: CC[C@@H]1C(=O)N(C)c2cnc(Nc3ccc(C(=O)N[C@H]4CC[C@H](N5CCN(CC6CC6)CC5)CC4)cc3OC)nc2N1C(C)C [volasertib]
Summary of the method: as §1

[5] = compound: CCn1c(C(=O)N(C2CC2)C2CC2)cc2c3c(ncn3C)c(Nc3cc(C)n(C)n3)nc21
Summary of the method: as §1

sotrastaurin = compound: CN1CCN(c2nc(C3=C(c4c[nH]c5ccccc45)C(=O)NC3=O)c3ccccc3n2)CC1 [sotrastaurin]
Summary of the method: as §1

[6] = compound: CNC(=O)C1=CC=CC=C1NC2=NC(=NC=C2Cl)NC3=C(C=C(C=C3)N4CCOCC4)OC
Summary of the method: as §1

rosiglitazone = compound: CN(CCOC1=CC=C(C=C1)C[C@H]2C(=O)NC(=O)S2)C3=CC=CC=N3 (racemic) [rosiglitazone]
Summary of the method: as §1

alvocidib = compound: CN1CC[C@H](c2c(O)cc(O)c3c(=O)cc(-c4ccccc4Cl)oc23)[C@H](O)C1 [alvocidib]
Summary of the method: as §1

Tubastatin A = compound: CN1CCc2c(c3ccccc3n2Cc2ccc(C(=O)NO)cc2)C1 [Tubastatin A]
Summary of the method: as §1

epoxomicin = compound: CC[C@H](C)[C@@H](C(=O)N[C@@H]([C@@H](C)O)C(=O)N[C@@H](CC(C)C)C(=O)[C@]1(CO1)C)NC(=O)[C@H]([C@@H](C)CC)N(C)C(=O)C [epoxomicin]
Summary of the method: as §1

[7] = compound: CN(C)CC(=O)Nc1ccc2[nH]c(=O)c3ccccc3c2c1
Summary of the method: as §1

defactinib = compound: CNC(=O)c1ccc(Nc2ncc(C(F)(F)F)c(NCc3nccnc3N(C)S(C)(=O)=O)n2)cc1 [defactinib]
Summary of the method: as §1

[8] = compound: COC(=O)[C@H](CCSC)NC(=O)C1=C(C=C(C=C1)NC[C@H](CS)N)C2=CC=CC=C2
Summary of the method: as §1

Measured: log2 fold change

LAMC1 (UniProt P11047)
inactive: [1] -0.202 | [2] -0.207 | [3] -0.118 | saracatinib 0.041 | [4] 0.187

LIN37 (UniProt Q96GY3)
inactive: volasertib -0.038 | [5] -0.044 | [1] -0.03 | [3] -0.106 | sotrastaurin 0.031 | [6] -0.216

LIN28A (UniProt Q9H9Z2)
inactive: [1] -0.098 | rosiglitazone -0.049 | [2] -0.082 | [3] -0.042 | saracatinib 0.039 | sotrastaurin 0.078 | alvocidib -0.284 | [4] -0.039

LGMN (UniProt Q99538)
inactive: volasertib -0.422 | [1] -0.071 | [3] -0.054

LDLRAP1 (UniProt Q5SW96)
inactive: [6] -0.014

LCN2 isoform 2 (UniProt P80188)
inactive: sotrastaurin -0.151 | Tubastatin A 0.426

LAMB2 (UniProt P55268)
inactive: volasertib -0.011 | [2] 0.061 | saracatinib -0.205 | Tubastatin A 0.156 | [4] 0.048

LIPT2 (UniProt A6NK58)
inactive: epoxomicin 0.087 | [7] -0.039 | [2] 0.031 | saracatinib 0.039 | sotrastaurin -0.297 | Tubastatin A 0.016 | defactinib -0.08 | [4] -0.081 | [8] 0.172

LRRC41 (UniProt Q15345)
inactive: volasertib -0.395 | [5] -0.036 | rosiglitazone 0.292 | sotrastaurin -0.336 | [6] 0.058
